Measured values published in PubChem BioAssay AID540276 (National Center for Advancing Translational Sciences (NCATS), 2011).
Out of some 300,000 compounds screened, about 5,400 (1.8%) were called active. Inconclusive results, whose numbers are uncertain, are shown with a selection of clear calls. Calls follow the shape of the full dose curve; tested in HEK293 cells. Potencies of inconclusive entries are doubtful fits and often do not repeat.

test: qHTS for inhibitors of binding or entry into cells for Marburg Virus; settings: Marburg virus pseudotyped entry inhibition, cell reporter; activity change, negative = inhibition: at 37.8 µM (top of the series) unless noted
% is scaled to controls: 0 for no effect and ±100 for the full control effect; potency is read from the fitted curve at half-maximal effect.

Row | Structure (SMILES) | activity change, negative = inhibition | Potency
1 | COc1ccc(CC(=O)O/N=C(\N)c2ccncc2)cc1 | inactive: -28.2% [at 46.1 µM] | –
2 | COCCn1c(/C=C/c2ccccc2)nc2ccccc21 | – | active: 10 µM
3 | Cc1cc(C)cc(Oc2cc(NC(=O)c3cn(C)nc3C)cc([N+](=O)[O-])c2)c1 | – | inconclusive: 9.2 µM [inhibitor, partial curve]
4 | CCOC(=O)C1(S(=O)(=O)c2ccc(Cl)cc2)CCN(Cc2ccc(Cl)cc2)CC1 | – | inconclusive: 9.2 µM [inhibitor, partial curve, poor fit]
5 | Cc1cccc(N2CCN(C(=O)CN3C(=O)COc4ccc(S(=O)(=O)N5CCCC5)cc43)CC2C)c1 (stereo not given) | inactive: -5.4% [at 46.1 µM] | –
6 | Cc1ccc(N2C(=O)c3ccccc3C2O)nc1 (stereo not given) | – | active: 2.06 µM
7 | O=Cc1cnc(N2CCN(c3ccccc3)CC2)s1 | – | inconclusive: 35.5 µM [activator, single point]
8 | CCN(CC)C(=O)C(=O)Nc1ccc(OC)c(Cl)c1 | – | inconclusive: 0.631 µM [activator, full curve, poor fit]
9 | CCOc1ccc(-n2ccn(CC(=O)NCCc3ccccc3)c(=O)c2=O)cc1 | inactive: 15.9% | –
10 | Cc1cc(NC(=O)C(C)(C)C)cc(-c2nc3ncccc3o2)c1O | inactive: -5.64% [at 46.1 µM] | –
11 | CC(C)c1ccccc1NC(=O)Cn1c(-c2ccccc2Cl)nc2ccccc21 | inactive: 3.95% | –
12 | COc1cc(/C=C/C(=O)OCC(=O)N2CCC(C)CC2)ccc1O | inactive: 11.9% | –
13 | CC(=O)c1c(C)[nH]c(C(=O)NCc2ccccc2Cl)c1C | inactive: -6.7% | –
14 | CS(=O)(=O)N(CC(O)CON=C1c2ccccc2-c2ccccc21)c1ccc(F)cc1 (stereo not given) | – | inconclusive: 11.6 µM [inhibitor, partial curve]
15 | O=C(Nc1cc(Cl)cc2c1-c1ccc(Cl)cc1C2O)C(Cl)Cl (stereo not given) | – | inconclusive: 35.5 µM [inhibitor, single point]
16 | CC(=O)NCCc1nc2cc(NC(=O)c3ccccc3)ccc2n1C | – | inconclusive: 1 µM [activator, full curve, poor fit]
17 | Cc1ccc(OCC(=O)N2CCN(c3nnc(-c4ccc(C)cc4)c4ccccc34)CC2)cc1 | – | active: 4.11 µM
18 | CCc1nnc(NC(=O)CCN(c2ccc(C)cc2)S(=O)(=O)c2ccccc2)s1 | – | inconclusive: 5.62 µM [activator, single point]
19 | COc1ccc(OC)c(NC(=O)C2C3C=CC(C3)C2C(=O)NCc2cccnc2)c1 (stereo not given) | – | inconclusive: 31.6 µM [activator, single point]
20 | CN1C(=O)C(O)(C2COC(C)(C)CC2=O)c2cc(Br)ccc21 (stereo not given) | – | inconclusive: 35.5 µM [inhibitor, single point]
21 | CC(C)C[C@H](NC(=O)OC(C)(C)C)C(=O)N/N=C/C1=Cc2ccccc2OC1C (stereo not given in full) | – | inconclusive: 0.92 µM [inhibitor, partial curve, poor fit]
22 | O=C(NC1CCCC1)C(c1c[nH]c2ccccc12)N(C(=O)Cn1nnc(-c2ccc(Cl)cc2)n1)c1ccccc1 (stereo not given) | inactive: -24.8% | –
23 | O=c1c2ccccc2nnn1CSc1ccccc1F | – | inconclusive: 22.4 µM [inhibitor, single point]

Row | Structure (SMILES) | activity change, negative = inhibition | Potency
24 | O=C(CN1C(=O)CC(c2ccco2)Sc2ccccc21)Nc1ccc2c(c1)OCCO2 (stereo not given) | – | inactive
25 | COCc1c(C(=O)Nc2ccc(C)c(S(=O)(=O)N3CCOCC3)c2)oc2ccccc12 | – | inconclusive: 35.5 µM [inhibitor, single point]
26 | COc1ccc(C(=O)C[n+]2cccc(Br)c2)cc1 | – | inconclusive: 1.26 µM [activator, partial curve, poor fit]
27 | O=c1cc(NS(=O)(=O)c2ccccc2)nc(SCc2ccc(Cl)cc2)[nH]1 | – | inconclusive: 1.12 µM [inhibitor, single point]
28 | N/C(=N\OC(=O)C12CC3CC(CC(C3)C1)C2)c1ccccn1 | – | inconclusive: 35.5 µM [inhibitor, single point]
29 | O=C(COc1ccccc1)NC(NC(=S)Nc1ccccc1C(=O)O)C(Cl)(Cl)Cl (stereo not given) | – | inconclusive: 0.092 µM [inhibitor, full curve, poor fit]
30 | COc1cc(C(C(=O)NC2CCCCC2)N(C(=O)Cc2c[nH]c3ccccc23)c2ccccc2C)cc(OC)c1OC (stereo not given) | – | inconclusive: 29.1 µM [inhibitor, single point]
31 | CCCN(CCC)C(=O)C(c1ccccc1)C1(O)CCCCC1 (stereo not given) | – | inconclusive: 10 µM [inhibitor, partial curve, poor fit]
32 | CC(=O)Oc1ccccc1/C=C1\CCOC1=O | inactive: -17% | –
33 | CC1CCN(c2nc3ccc(C(=O)NCCc4ccc(S(N)(=O)=O)cc4)cc3s2)CC1 | inactive: 1.15% [at 46.1 µM] | –
34 | CCCS(=O)(=O)NCCc1cc2c(OC)ccc(OC)c2[nH]c1=O | inactive: 23.1% | –
35 | COc1ccc(NC(=O)Nc2nnc(-c3ccccc3F)s2)cc1 | – | inconclusive: 14.1 µM [activator, partial curve, poor fit]
36 | CC(C)(C)NC(=O)CSc1ncnc2c1nnn2Cc1ccccc1Cl | – | inconclusive: 17.8 µM [inhibitor, partial curve, poor fit]
37 | O=c1oc2ccccc2c(=O)c2ccccc12 | inactive: -5% [at 46.1 µM] | –
38 | Cc1ccc(C(c2nnnn2Cc2cccs2)N2CCN(C(=O)c3ccco3)CC2)cc1 (stereo not given) | – | inconclusive: 14.1 µM [inhibitor, single point]
39 | COC(=O)c1sccc1NC(=O)COc1ccc(F)cc1Cl | – | inconclusive: 3.98 µM [activator, full curve, poor fit]
40 | Cc1cc(C(=O)NCCCn2ccnc2)sc1-c1ccccc1 | – | inconclusive: 29.1 µM [inhibitor, single point]
41 | Cc1cc(NC(=O)c2cc(-c3cccs3)on2)no1 | inactive: 4.54% | –
42 | COCCCNC(=O)/C=C/c1ccc(OCc2c(F)cccc2Cl)cc1 | – | inconclusive: 1.78 µM [inhibitor, full curve, poor fit]
43 | COc1cc(-c2c(C#N)c(N)nc(SCc3ccncc3)c2C#N)cc(OC)c1OC | – | inconclusive: 25.9 µM [inhibitor, single point]
44 | O=C(COc1ccc(Cl)cc1Cl)Nc1ccccn1 | – | inconclusive: 0.82 µM [inhibitor, full curve, poor fit]
45 | CCC(C)Nc1nc2c(c(=O)n(C)c(=O)n2C)n1Cc1ccc(F)cc1 (stereo not given) | – | inconclusive: 16.4 µM [inhibitor, partial curve, poor fit]

An excerpt of these results, as comma-separated lines:
Row,Structure (SMILES),"activity change, negative = inhibition",Potency
25,COCc1c(C(=O)Nc2ccc(C)c(S(=O)(=O)N3CCOCC3)c2)oc2ccccc12,–,"inconclusive: 35.5 µM [inhibitor, single point]"
29,O=C(COc1ccccc1)NC(NC(=S)Nc1ccccc1C(=O)O)C(Cl)(Cl)Cl (stereo not given),–,"inconclusive: 0.092 µM [inhibitor, full curve, poor fit]"
